In patent publication US20070275314A1, “Diphenyl amine derivative, production method therefor and electrophotographic photoconductor” (priority 2006, published 2007):

Tests used:
[1] = Evaluation of the photoconductor external appearance (crystallization on the photoconductor layer surface); parameters: key to appearance (photoconductor external appearance): ◯ (good): Crystallization was not observed.; Δ (fair): Crystallization was slightly observed.; X (bad): Crystallization was observed; details: for appearance (photoconductor external appearance): hole transfer agent in monolayer photoconductor
[2] = Black dot generation evaluation of monolayer type photoconductor mounted on a printer; details: electron transfer agent (13-4), binding resin (PC-Z); for Black dots (number): after 5,000 sheets at 40° C., 90 Rf and leaving 6 hours, per blank A4 paper
[3] = X type non metal phthalocyanine, electron transfer agent (13-1)
[4] = X type non metal phthalocyanine, electron transfer agent (13-3)
[5] = Y type titanyl phthalocyanine, electron transfer agent (13-3)
[6] = X type non metal phthalocyanine

Structure (SMILES) | appearance (photoconductor external appearance) [1, 3] | appearance (photoconductor external appearance) [1, 4] | appearance (photoconductor external appearance) [1, 5] | Black dots (number) [2, 6] [number] | Black dots (number) ([2]; Y type titanyl phthalocyanine) | Evaluation (black dot generation) [2, 6] | Evaluation (black dot generation) ([2]; Y type titanyl phthalocyanine) | Crystallization after applying the application liquid onto the conductive base member and drying ([1]; photoconductors made as in Examples 1 to 3 (Comparative Examples 4 to 6))
C(=C\c1ccc(N(c2ccc(/C=C/c3ccccc3)cc2)c2cccc3c2CCCC3)cc1)/c1ccccc1 [compound (1-1)] | ◯(good) | ◯(good) | ◯(good) | 38 | 42 |  |  | 
Cc1ccc(/C=C/c2ccc(N(c3ccc(/C=C/c4ccc(C)cc4)cc3)c3cccc4c3CCCC4)cc2)cc1 [compound (1-2)] | ◯(good) | ◯(good) | ◯(good) | 43 | 44 |  |  | 
C(/C=C/c1ccc(N(c2ccc(/C=C/C=C/c3ccccc3)cc2)c2cccc3c2CCCC3)cc1)=C\c1ccccc1 [compound (1-3)] | ◯(good) | ◯(good) | ◯(good) |  |  |  |  | 
C(=Cc1cccc(N(c2ccc(/C=C/C=C/c3ccccc3)cc2)c2cccc3c2CCCC3)c1)/C=C/c1ccccc1 [compound (1-4)] | ◯(good) | ◯(good) | ◯(good) | 44 | 46 |  |  | 
C(/C=C/c1ccc(N(c2ccc(/C=C/C=C/c3ccccc3)cc2)c2ccc3c(c2)CCCC3)cc1)=C\c1ccccc1 [compound (1-5)] | ◯(good) | ◯(good) | ◯(good) | 40 | 42 |  |  | 
C(/C=C/c1ccc(N(c2ccc(/C=C/c3ccccc3)cc2)c2cccc3c2CCCC3)cc1)=C\c1ccccc1 [compound (1-6)] | ◯(good) | ◯(good) | ◯(good) | 42 | 42 |  |  | 
C(/C=C/c1ccc(N(c2ccc(/C=C/c3ccccc3)cc2)c2ccc3c(c2)CCCC3)cc1)=C\c1ccccc1 [compound (1-7)] | ◯(good) | ◯(good) | ◯(good) | 43 | 45 |  |  | 
Cc1ccc(/C=C/c2ccc(N(c3ccc(/C=C/C=C/c4ccccc4)cc3)c3cccc4c3CCCC4)cc2)cc1 [compound (1-8)] | ◯(good) | ◯(good) | ◯(good) | 43 | 45 |  |  | 
C(/C=C/c1ccc(N(c2ccc(/C=C/C=C/c3ccccc3)cc2)c2cccc3c2CCC3)cc1)=C\c1ccccc1 [compound (1-9)] | ◯(good) | ◯(good) | ◯(good) | 40 | 40 |  |  | 
Cc1ccc(/C=C/c2ccc(N(c3ccc(/C=C/C=C/c4ccccc4)cc3)c3cccc4c3CCC4)cc2)cc1 [compound (1-10)] | ◯(good) | ◯(good) | ◯(good) |  |  |  |  | 
C(/C=C/c1ccc(N(c2ccc(/C=C/C=C/c3ccccc3)cc2)c2ccc3c(c2)CCC3)cc1)=C\c1ccccc1 [compound (1-11)] | ◯(good) | ◯(good) |  |  |  |  |  | 
Cc1ccc(/C=C/c2ccc(N(c3ccc(/C=C/C=C/c4ccccc4)cc3)c3ccc4c(c3)CCC4)cc2)cc1 [compound (1-12)] |  |  |  | 43 | 45 | ◯(good) | ◯(good) | 
Cc1ccc(N(c2ccc(/C=C/C=C/c3ccccc3)cc2)c2ccc(/C=C/C=C/c3ccccc3)cc2)c(C)c1 [compound (6-1), reference compound] |  |  |  | 72 | 75 | X(bad) (X (bad): Above 60 black dots generated per A4 paper sheet.) | X(bad) (X (bad): Above 60 black dots generated per A4 paper sheet.) | 
Cc1cccc(N(c2ccc(/C=C/C=C/c3ccccc3)cc2)c2ccc(/C=C/C=C/c3ccccc3)cc2)c1C [compound (6-2), reference compound] |  |  |  |  |  | X(bad) (X (bad): Above 60 black dots generated per A4 paper sheet.) | X(bad) (X (bad): Above 60 black dots generated per A4 paper sheet.) | crystallized
